Assay results from paper PMC7992179 (ACS Omega, 2021).

Tested on: MCF-7 cell line
Assay: MTT cytotoxicity assay in MCF-7 cells
Assay type: cell-based
Settings: Homo sapiens, MCF7, 48 h, read-out: IC50 ± SD
Procedure, shortened: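 MCF-7 cells grown in Eagle's MEM with 10% FBS, 1% penicillin/streptomycin, 0.1 mM non-essential amino acids, 10 μg/mL insulin and 1 mM sodium pyruvate at 37 °C, 5% CO2. Trypsin/EDTA-harvested cells were seeded at 6 × 10^4 cells/mL and incubated overnight. Test compound (1–30 μM, or a fixed 30 μM screen against doxorubicin) was applied for 48 h. MTT 0.5 mg/mL for 4 h, DMSO, A570; % inhibition and IC50.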

## COc1cccc2c1C(=O)c1c(O)c3c(c(O)c1C2=O)C[C@@](O)(C(=O)CO)C[C@@H]3O[C@H]1C[C@H](N)[C@H](O)[C@H](C)O1 [doxorubicin (DOX), doxorubicin, reference compound]
  IC50: 900 ± 140 nM
